Drawing on publication PMC7819943, “Rice protein-binding microarrays: a tool to detect cis-acting elements near promoter regions in rice”, this text covers binding signal for 42 sequences.

By UniProt entry, the sequences of proteins in these tests, tags left out.
UniProt Q0JBA9, entry or part of it: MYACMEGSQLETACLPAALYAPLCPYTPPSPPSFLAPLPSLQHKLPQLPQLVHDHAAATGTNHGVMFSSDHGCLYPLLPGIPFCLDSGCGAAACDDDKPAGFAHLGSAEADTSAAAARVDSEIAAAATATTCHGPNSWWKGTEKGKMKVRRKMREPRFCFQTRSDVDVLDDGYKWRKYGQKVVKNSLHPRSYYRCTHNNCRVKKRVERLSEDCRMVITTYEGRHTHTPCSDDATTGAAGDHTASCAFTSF

The other results are listed elsewhere or left out.

In the assay the target is OsWRKY34 (Oryza sativa, UniProt Q0JBA9 1-250). The assay is described as follows: protein-binding microarray (RPBM); PBS, 2% BSA, 51.3 ng/ul salmon testes DNA, 50 uM zinc acetate, 200 nM TF, 25 C, 1 h; high values mean tight binding. The conditions noted are these: protein: recombinant; tags: N-terminal polyhistidine and DsRed monomer fusion (pET32a); label: CyDye5-dUTP incorporated in the synthesized complementary strand; 3' TTTTT single-stranded linker to array surface; dsDNA, one strand shown. The method, boiled down: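 Binding signal is defined as the fluorescence intensity of each feature in arbitrary units, read on an Axon 4000B scanner. Transcription factors with N-terminal polyhistidine and DsRed fusions came from E. coli BL21-CodonPlus and were purified on Ni–NTA. They were incubated at 200 nM for 1 h at 25 °C on a custom Agilent array that had been made double-stranded with Cy5-dUTP, with 50 µM zinc acetate present, and the array was washed.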
In the case of “GCCATGTTTGTTTTAGTGTAAATTTGGAATTTCCTCCAGCCGGAGTCACCTAGTGCAG”, the binding signal was 8050 fluorescence intensity (a.u.). To “CGGTTGCCTCACATCTTCGGGTGCTTTCCCCTTCCTTTCCCGGAGTCACCTAGTGCAG” belongs 9290 fluorescence intensity (a.u.); to “TGTCTGCGTTATTGCTTCTCCGCCAAATTTAAGTCTTCCTCGGAGTCACCTAGTGCAG”, 10600 fluorescence intensity (a.u.); to “TTCTTCCGCGCCGACCTCTCCGTCCGCCCCGTCGACGAGTCGGAGTCACCTAGTGCAG”, 9440 fluorescence intensity (a.u.). To “GCTTTGACCGAGGTGGGAGGGTTTTGGGCCCAAGGGAGGTCGGAGTCACCTAGTGCAG” belongs 8850 fluorescence intensity (a.u.); to “TGCATTCCTGTCGTGCTCATTACGTAATCTCGCACCCACGCGGAGTCACCTAGTGCAG”, 8700 fluorescence intensity (a.u.); to “GGTTGCTCAGTTGCCGACACATTTCTGCAGACCCATTTTGCGGAGTCACCTAGTGCAG”, 8080 fluorescence intensity (a.u.). Next, “TTCACGCGTGCCACCGCCCCACACCTTCATCCGTCCATCACGGAGTCACCTAGTGCAG”: 8790 fluorescence intensity (a.u.).

Regarding “TGTGAATTGATCTTGATAACATCTGCTACACTGTAAATAACGGAGTCACCTAGTGCAG”, the binding signal was 8310 fluorescence intensity (a.u.). Regarding “AGTATTAGAGTGGTCTTATTTCTCAGTCTCTTGGTCAACACGGAGTCACCTAGTGCAG”, the binding signal is 12600 fluorescence intensity (a.u.).

Consider “TTTTATATCCCTCACCGTACGATCCAACGTTCCGATTTCTCGGAGTCACCTAGTGCAG”, for which the binding signal is 8890 fluorescence intensity (a.u.).

For the sequence “AATCTCCTAGTCTGCCAGACATATTCACGACCTATCTTAACGGAGTCACCTAGTGCAG”, the binding signal was 10500 fluorescence intensity (a.u.). Take “CACATTTGATCTCTCATTTTCTGGGTCTGTTCTGTCTGCTCGGAGTCACCTAGTGCAG”: the binding signal was 14100 fluorescence intensity (a.u.). Regarding “ATTGTTTTATTTAGGTGATTAAATTTGTTTTCATTTATATCGGAGTCACCTAGTGCAG”, the binding signal is 9500 fluorescence intensity (a.u.). Consider “TTTCCGTGTCCAACTTACCCTGAGTTTCTGTGTCCAACTTCGGAGTCACCTAGTGCAG”, for which the binding signal was 11400 fluorescence intensity (a.u.).

As to “TGTCCCACTTTGTCCATGTATATCACTGTTCCCCGTGTTGCGGAGTCACCTAGTGCAG”, the binding signal was 8220 fluorescence intensity (a.u.). As for “AAGTGGTTTATGAGAATCCTATTAGTGTCGTGTTGTATAGCGGAGTCACCTAGTGCAG”, the binding signal was 10100 fluorescence intensity (a.u.).

Turning to “CCTCTCTTATCCTCTCCTCCACGGCTCCACGTCTATTCTCCGGAGTCACCTAGTGCAG”, the binding signal is 8250 fluorescence intensity (a.u.). Turning to “ATTGGTATTCTACATGTCACATCCATCAATTCTAATTCTACGGAGTCACCTAGTGCAG”, the binding signal is 8730 fluorescence intensity (a.u.). For “TTTATCCACTATAACTCTATTTAGCTCACTATAGTTGTTTCGGAGTCACCTAGTGCAG”, the binding signal is 10900 fluorescence intensity (a.u.).

Turning to “TTATCTCTATTACCCCTTCTAACATGCTTCTATGTTTTTTCGGAGTCACCTAGTGCAG”, the binding signal is 10300 fluorescence intensity (a.u.). For the sequence “CGGGACGAGGCCCTTCTTCTTGCGCTCCTCCAGGCGCTGCCGGAGTCACCTAGTGCAG”, the binding signal was 8170 fluorescence intensity (a.u.).

With “CTCCTCGGTGCGGTTGCGGTTTCGTTTTCGTTTTCTTTCCCGGAGTCACCTAGTGCAG”, the binding signal was 13400 fluorescence intensity (a.u.).

In the case of “TGTAAGAACTTAAGTGTAGTGGCAGTGGCCCCAAATTTTTCGGAGTCACCTAGTGCAG”, the binding signal is 8660 fluorescence intensity (a.u.).

Take “CTGTTACAAGTATTACTTTGCCCTCAACCTCACTATTGTACGGAGTCACCTAGTGCAG”: the binding signal was 8970 fluorescence intensity (a.u.). Turning to “TTGGGAGTACGGGTTTTGTGTGTGTTTTCTCCACTAAAATCGGAGTCACCTAGTGCAG”, the binding signal was 9970 fluorescence intensity (a.u.). In the case of “CTAGCTTTCCATCATCCCACCACTGCCTCTGCTAAGCTACCGGAGTCACCTAGTGCAG”, the binding signal was 9080 fluorescence intensity (a.u.).

“ATATGGCCTTCGGTGGTATCCACGTAGAGCTTTACGTTAACGGAGTCACCTAGTGCAG”: the binding signal was 8060 fluorescence intensity (a.u.). Take “TATATTGCTCTTAATTTATTTGTGTTACTTTTTATGTGTTCGGAGTCACCTAGTGCAG”: the binding signal is 8330 fluorescence intensity (a.u.). On to “GCCTTTGTTGATGTCAAGGTCAATTTCGTAGTTTACCTTTCGGAGTCACCTAGTGCAG”, for which the binding signal was 8040 fluorescence intensity (a.u.). Regarding “AGGCTTCTCTGTCTCCATTTCTGCATATGTAGTTTGCTTTCGGAGTCACCTAGTGCAG”, the binding signal is 10900 fluorescence intensity (a.u.).

Turning to “TCAAACCTCGCGACTTCTTCTTCCACCTCTCGCTCCGGGCCGGAGTCACCTAGTGCAG”, the binding signal was 11800 fluorescence intensity (a.u.).

In the case of “CTGCTCATGTTTCCCTCACTCCATTGCCCCTGCCTTTTCGCGGAGTCACCTAGTGCAG”, the binding signal is 10400 fluorescence intensity (a.u.). On to “ATCCTCGCTGCTCTTCTCCACTGGTTCTCCATCGCCGGCCCGGAGTCACCTAGTGCAG”, for which the binding signal was 8330 fluorescence intensity (a.u.). Take “ATATTTCGCCGCGCCCCGCGCCACGCCACGCCACGCCACCCGGAGTCACCTAGTGCAG”: the binding signal is 8920 fluorescence intensity (a.u.). On to “TTGCAAACGACGTCCATCCCATCTCTCTCTCACCCCTTCACGGAGTCACCTAGTGCAG”, for which the binding signal is 8660 fluorescence intensity (a.u.). Next, “ATTCCTTTTCAGTTAAATGCATGTTACATTTGTCGGTAATCGGAGTCACCTAGTGCAG”: 9180 fluorescence intensity (a.u.); “AGTTGGGGTACTCTTGATCCTTTCAGTTCTTGTGTTCGTTCGGAGTCACCTAGTGCAG”: 8850 fluorescence intensity (a.u.). To “GTCCACGGCCCAAAGCAAAGCACACGTACAGCTACACTTTCGGAGTCACCTAGTGCAG” belongs 9930 fluorescence intensity (a.u.).

For the sequence “GACGTGGCTATGGGTGGGCGTTGCGAGCCGGCATTTTATACGGAGTCACCTAGTGCAG”, the binding signal is 16400 fluorescence intensity (a.u.). As for “GCGCTCAGGGCCCCACCACCTCGGCACCCTACACCGTCCACGGAGTCACCTAGTGCAG”, the binding signal is 11800 fluorescence intensity (a.u.). To “ACTGCTCCAACACTACCTCTACAGGCTATCTCTGGGGACCCGGAGTCACCTAGTGCAG” belongs 10200 fluorescence intensity (a.u.).
